# Measurements published in the supplement of paper PMC8728848.
# Some of the results follow.
# B1: Intelectin 1 (Homo sapiens), Q8WWA0 (protein)
# chain: MNQLSFLLFLIATTRGWSTDEANTYFKEWTCSSSPSLPRSCKEIKDECPSAFDGLYFLRTENGVIYQTFCDMTSGGGGWTLVASVHENDMRGKCTVGDRWSSQQGSKAVYPEGDGNWANYNTFGSAEAATSDDYKNPGYYDIQAKDLGIWHVPNKSPMQHWRNSSLLRYRTDTGFLQTLGHNLFGIYQKYPVKYGEGKCWTDNGPVIPVVYDFGDAQKTASYYSPYGQREFTAGFVQFRVFNNERAANALCAGMRVTGCNTEHHCIGGGGYFPEASPQQCGDFSGFDWSGYGTHVGYSSSREITEAAVLLFYR
# How the values were obtained:
# Assay in all cases: glycan array binding signal (z-score within array); higher = stronger binding
# Details in all cases: glycan notation: IUPAC condensed, linker removed
# [1] = molecular target: Gal(a1-4)Gal(b1-4)GlcNAc(b1-2)Man(a1-3)[Gal(a1-4)Gal(b1-4)GlcNAc(b1-2)Man(a1-6)]Man(b1-4)GlcNAc(b1-4)GlcNAc
# How it was run: (§1)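 The binding signal is a Z-score computed within each array. Data were drawn from 3228 arrays in the Consortium for Functional Glycomics database, restricted to those with a known protein sequence. Scores were averaged over arrays of the same protein sequence at different concentrations or buffers, and over linkers, and negative values can be taken as non-binding.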
# [2] = molecular target: Gal(a1-4)Gal(b1-4)GlcNAc(b1-3)Gal(b1-4)Glc
# How it was run: as §1
# [3] = molecular target: Gal(a1-4)GlcNAc
# How it was run: as §1
# [4] = molecular target: Gal(a1-6)Glc
# How it was run: as §1
# [5] = molecular target: Gal(b1-2)Gal
# How it was run: as §1
# [6] = molecular target: Gal(b1-3)Gal
# How it was run: as §1
# [7] = molecular target: Gal(b1-3)Gal(b1-4)GlcNAc
# How it was run: as §1
# [8] = molecular target: Gal(b1-3)Gal(b1-4)GlcNAc(b1-2)Man(a1-3)[Gal(b1-3)Gal(b1-4)GlcNAc(b1-2)Man(a1-6)]Man(b1-4)GlcNAc(b1-4)GlcNAc
# How it was run: as §1
# [9] = molecular target: Gal(b1-3)GalNAc
# How it was run: as §1
# [10] = molecular target: Gal(b1-3)GalNAc(a1-3)[Fuc(a1-2)]Gal(b1-4)Glc
# How it was run: as §1
# [11] = molecular target: Gal(b1-3)GalNAc(a1-3)[Fuc(a1-2)]Gal(b1-4)GlcNAc
# How it was run: as §1
# [12] = molecular target: Gal(b1-3)GalNAc(b1-3)Gal(a1-4)Gal(b1-4)Glc
# How it was run: as §1
# [13] = molecular target: Gal(b1-3)GalNAc(b1-4)Gal(b1-4)Glc
# How it was run: as §1
# [14] = molecular target: Gal(b1-3)GalNAc(b1-4)[Neu5Ac(a2-3)]Gal(b1-4)Glc
# How it was run: as §1
# [15] = molecular target: Gal(b1-3)GlcNAc
# How it was run: as §1
# [16] = molecular target: Gal(b1-3)GlcNAc(a1-6)Gal(b1-4)GlcNAc
# How it was run: as §1
# [17] = molecular target: Gal(b1-3)GlcNAc(b1-2)Man(a1-3)[Gal(b1-3)GlcNAc(b1-2)Man(a1-6)]Man(b1-4)GlcNAc(b1-4)GlcNAc
# How it was run: as §1
# [18] = molecular target: Gal(b1-3)GlcNAc(b1-2)Man(a1-3)[Gal(b1-3)GlcNAc(b1-2)Man(a1-6)]Man(b1-4)GlcNAc(b1-4)[Fuc(a1-6)]GlcNAc
# How it was run: as §1
# [19] = molecular target: Gal(b1-3)GlcNAc(b1-2)[Gal(b1-3)GlcNAc(b1-6)]Man(a1-6)[Gal(b1-3)GlcNAc(b1-2)Man(a1-3)]Man(b1-4)GlcNAc(b1-4)GlcNAc
# How it was run: as §1
# [20] = molecular target: Gal(b1-3)GlcNAc(b1-3)Gal(b1-3)GlcNAc
# How it was run: as §1
# [21] = molecular target: Gal(b1-3)GlcNAc(b1-3)Gal(b1-4)Glc
# How it was run: as §1
# [22] = molecular target: Gal(b1-3)GlcNAc(b1-3)Gal(b1-4)GlcNAc
# How it was run: as §1
# [23] = molecular target: Gal(b1-3)GlcNAc(b1-3)Gal(b1-4)GlcNAc(b1-6)[Gal(b1-3)GlcNAc(b1-3)]Gal(b1-4)Glc
# How it was run: as §1
# [24] = molecular target: Gal(b1-3)GlcNAc(b1-3)Gal(b1-4)[Fuc(a1-3)]GlcNAc(b1-6)[Gal(b1-3)GlcNAc(b1-3)]Gal(b1-4)Glc
# How it was run: as §1
# [25] = molecular target: Gal(b1-3)GlcNAc(b1-3)GalNAc
# How it was run: as §1
# [26] = molecular target: Gal(b1-3)GlcNAc(b1-6)Gal(b1-4)GlcNAc
# How it was run: as §1
# [27] = molecular target: Gal(b1-3)[Fuc(a1-4)]GlcNAc
# How it was run: as §1
# [28] = molecular target: Gal(b1-3)[Fuc(a1-4)]GlcNAc(b1-2)Man(a1-3)[Gal(b1-3)[Fuc(a1-4)]GlcNAc(b1-2)Man(a1-6)]Man(b1-4)GlcNAc(b1-4)GlcNAc
# How it was run: as §1
# [29] = molecular target: Gal(b1-3)[Fuc(a1-4)]GlcNAc(b1-2)Man(a1-3)[Gal(b1-3)[Fuc(a1-4)]GlcNAc(b1-2)Man(a1-6)]Man(b1-4)GlcNAc(b1-4)[Fuc(a1-6)]GlcNAc
# How it was run: as §1
# [30] = molecular target: Gal(b1-3)[Fuc(a1-4)]GlcNAc(b1-3)Gal(b1-3)[Fuc(a1-4)]GlcNAc
# How it was run: as §1
# [31] = molecular target: Gal(b1-3)[Fuc(a1-4)]GlcNAc(b1-3)Gal(b1-4)GlcNAc
# How it was run: as §1
# [32] = molecular target: Gal(b1-3)[Fuc(a1-4)]GlcNAc(b1-3)Gal(b1-4)[Fuc(a1-3)]GlcNAc
# How it was run: as §1
# [33] = molecular target: Gal(b1-3)[GlcNAc(b1-6)]GalNAc
# How it was run: as §1
# [34] = molecular target: Gal(b1-3)[Neu5Ac(a2-6)]GalNAc
# How it was run: as §1
# [35] = molecular target: Gal(b1-3)[Neu5Ac(a2-6)]GlcNAc(b1-6)Gal(b1-4)Glc
# How it was run: as §1
# [36] = molecular target: Gal(b1-3)[Neu5Ac(b2-6)]GalNAc
# How it was run: as §1
# [37] = molecular target: Gal(b1-4)Gal
# How it was run: as §1
binder,measurement,setting,value
B1,glycan array binding signal (z-score),[1],0.196
same,glycan array binding signal (z-score),[2],0.081
same,glycan array binding signal (z-score),[3],-0.253
same,glycan array binding signal (z-score),[4],-0.107
same,glycan array binding signal (z-score),[5],0.357
same,glycan array binding signal (z-score),[6],-0.473
same,glycan array binding signal (z-score),[7],-0.676
same,glycan array binding signal (z-score),[8],-0.124
same,glycan array binding signal (z-score),[9],-0.143
same,glycan array binding signal (z-score),[10],0.06
same,glycan array binding signal (z-score),[11],-0.367
same,glycan array binding signal (z-score),[12],0.294
same,glycan array binding signal (z-score),[13],-0.538
same,glycan array binding signal (z-score),[14],-0.763
same,glycan array binding signal (z-score),[15],-0.29
same,glycan array binding signal (z-score),[16],-0.723
same,glycan array binding signal (z-score),[17],-0.346
same,glycan array binding signal (z-score),[18],0.328
same,glycan array binding signal (z-score),[19],0.07
same,glycan array binding signal (z-score),[20],0.039
same,glycan array binding signal (z-score),[21],0.013
same,glycan array binding signal (z-score),[22],0.233
same,glycan array binding signal (z-score),[23],0.581
same,glycan array binding signal (z-score),[24],-0.452
same,glycan array binding signal (z-score),[25],0.155
same,glycan array binding signal (z-score),[26],0.042
same,glycan array binding signal (z-score),[27],0.568
same,glycan array binding signal (z-score),[28],-0.405
same,glycan array binding signal (z-score),[29],0.647
same,glycan array binding signal (z-score),[30],0.595
same,glycan array binding signal (z-score),[31],1.33
same,glycan array binding signal (z-score),[32],0.076
same,glycan array binding signal (z-score),[33],0.319
same,glycan array binding signal (z-score),[34],0.121
same,glycan array binding signal (z-score),[35],0.303
same,glycan array binding signal (z-score),[36],2.22
same,glycan array binding signal (z-score),[37],0.906
